This assay in a line: qHTS Assay for Lipid Storage Modulators in Drosophila S3 Cells.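 For cell number change: cells counted by Cell Tracker Red CMTPX staining in the red channel.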 Particulars: BODIPY lipid droplet fluorescence, 18-24 h; for cell number change: measured here: cell count max response, cells fed with added oleic acid. The procedure, abridged: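 Drosophila S3 cells got compounds at several concentrations plus oleic acid (400 uM solution). Laser-scanning cytometry with 488 nm excitation read lipid droplets at 500-530 nm and cells at 575-640 nm. Percent activity was relative to 20 uM Triacsin C.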

[1] abbreviates: measured here: cell number channel AC50, cells fed with added oleic acid.
[2] abbreviates: measured here: lipid fluorescence (Fed channel) AC50, cells fed with added oleic acid.

This is one part of the list. Further columns of the screen follow, without active or inactive calls. The list favours compounds with an active or inconclusive main result. Potencies come from curve fits of mixed quality, noted in brackets.

The term AC50 denotes the concentration giving half of the maximal activity seen. High values mean activity only at high concentration, low ones activity at low concentration. In the case of `CN(CC(=O)Nc1ccc(F)cc1[N+](=O)[O-])Cc1ccccc1`, the cell number change was determined as 59.5%. Under setting [1], the AC50 was 29.1 µM [rising, single point]. As to `Cc1ccc(C(=O)NCc2ccccc2CN2CCCC2)cc1S(=O)(=O)N1CCOCC1`, the cell number change was -3.49%. The AC50 under setting [1] is 6.51 µM [falling, single point]. Further, the AC50 under setting [2] is 6.51 µM [falling, single point]. With `CCCC(=O)N1CCN(c2nnc(-c3ccc(C)cc3)c3ccccc23)CC1`, the cell number change was 18%. Take `COc1ccc(/C=N/NC(=O)Cc2cc(OC)c(OC)cc2[N+](=O)[O-])cc1`: under setting [2], the AC50 is 23.1 µM [rising, single point]. Take `O=C1CSC(c2cccc(F)c2)N1c1ccccc1F` (stereo not given): the cell number change was 19.5%. As to `COc1ccc(/C=N/NC(=O)C(=O)Nc2ccccn2)cc1OC`, the cell number change was determined as 7.03%. Also, the AC50 under setting [2] was 0.116 µM [falling, full curve, poor fit].

Consider `O=C(O)c1cc(S(=O)(=O)N2CC3CC3C2C(=O)O)c(Cl)cc1Cl` (stereo not given), for which the cell number change stood at 1.89%. Besides, the AC50 under setting [2] was 29.1 µM [falling, single point]. `CCc1cccc(CC)c1NC(=O)/C(C#N)=C/c1ccccc1C(F)(F)F`: the cell number change was -22.7%. The same measure, in the same setting: the same measure for `CCCC(=O)N1CCN(c2ccc(NC(=O)c3ccc([N+](=O)[O-])o3)cc2Cl)CC1`: -47.7%; for `Cc1ccc(C)c(C(C)NC(=O)c2ccc(Br)o2)c1` (stereo not given): 31.4%; for `Cc1nnc(SCC(=O)Nc2ccc3c(c2)OCO3)o1`: 4.64%. As for `Cc1onc(-c2c(F)cccc2Cl)c1C(=O)Nc1ccc(Cl)c(S(=O)(=O)N(C)C)c1`, the cell number change is -8.21%. Further, under setting [2], the AC50 is 29.1 µM [rising, single point]. On to `CC(C)C(=O)Nc1cc(-c2nc3ncccc3o2)ccc1Cl`, for which the cell number change was -4.99%. The AC50 under setting [2] is 2.31 µM [falling, partial curve]. `O=C(Nc1ccc(C2=NCCN2)cc1)c1ccc(C(=O)Nc2ccc(C3=NCCN3)cc2)c(Cl)c1`: the cell number change came out at 109%. Also, the AC50 under setting [1] is 7.31 µM [rising, partial curve]. Further, the AC50 under setting [2] is 8.2 µM [rising, partial curve]. On to `COc1ccc(-n2nnnc2SCC(=O)Nc2cccc(C)n2)cc1OC`, for which the cell number change worked out at 0.794%. Besides, the AC50 under setting [2] was 2.06 µM [rising, full curve]. As for `C=CCSc1nc2sc3c(c2c(=O)n1-c1ccccc1)CCN(C)C3`, the cell number change is -4.76%. Under setting [2], the AC50 is 0.00461 µM [falling, full curve, poor fit].

Take `O=C1N(c2ccccc2)C[C@@H]2C[C@@H](c3cc4ccccc4o3)N3CCC[C@@]123`: the cell number change is -22%. Besides, under setting [2], the AC50 is 29.1 µM [falling, single point]. Regarding `COc1cccc(CNC(=O)C2CCN(C(=O)N3CC(C)Oc4ccccc43)CC2)c1` (stereo not given), the cell number change was -0.865%. The AC50 under setting [2] is 29.1 µM [falling, single point].

Take `COC(=O)c1ccc(OCC(=O)N2CCCc3ccccc32)cc1`: the cell number change turned out to be 26.2%. The AC50 under setting [2] is 1.16 µM [falling, single point]. In the case of `O=C(Cn1nnc(-c2ccccc2F)n1)NCCc1ccccc1`, the cell number change was -34.7%. Further, the AC50 under setting [1] was 14.6 µM [falling, partial curve]. Moreover, the half-maximal activity concentration (AC50) under setting [2] was 0.651 µM [falling, single point].

Turning to `O=S(=O)(NCCc1cccs1)c1ccc(Br)cc1`, the cell number change turned out to be 15.8%. For the same compound, the AC50 under setting [2] was 35.5 µM [rising, single point]. Turning to `COC(=O)c1cc(Cl)c(NC(=O)/C=C/c2ccc(Cl)cc2)cc1OC`, the AC50 under setting [2] is 29.1 µM [rising, single point].

Regarding `O=C(CCS(=O)(=O)c1cc2c(cc1Cl)NC(=O)CO2)NCc1ccccc1`, the cell number change worked out at 24.2%. In addition, the AC50 under setting [2] is 0.13 µM [rising, full curve, poor fit].

Take `Cc1cc2c(c(SCC#N)n1)C(=O)OC2`: the cell number change is -20.5%. Further, the AC50 under setting [1] was 6.51 µM [falling, single point]. Moreover, under setting [2], the AC50 is 6.51 µM [falling, single point]. With `c1ccc(Nc2nc(-c3ccccc3)nc3ccccc23)cc1`, the cell number change was -13.1%. The AC50 under setting [2] is 0.13 µM [rising, full curve, poor fit]. On to `CC(C)Oc1ccccc1/C=N/Nc1ccccc1[N+](=O)[O-]`, for which the cell number change is -89.6%. In addition, the AC50 under setting [1] was 16.4 µM [falling, partial curve]. Besides, under setting [2], the AC50 was 1.03 µM [rising, single point]. Take `O=C(NC1CCCc2ccccc21)c1ccccc1OC(F)F` (stereo not given): the cell number change was -2.17%. Further, the AC50 under setting [2] was 0.00461 µM [rising, full curve, poor fit]. For `CCN(CC)C1CCN(C(=O)c2ccc3nc(Cc4ccc(OC)cc4)oc3c2)C1` (stereo not given), the cell number change amounted to 9.13%. In addition, the AC50 under setting [2] was 0.206 µM [rising, partial curve]. On to `CC(=O)c1ccc(NC(=O)CO/N=C(\C)c2cccs2)cc1`, for which the cell number change was determined as 33.8%. The AC50 under setting [1] is 29.1 µM [rising, single point]. For `O=C(Nc1ccc2c(c1)OCO2)C1CCCCC1`, the cell number change was -0.552%. Further, the AC50 under setting [2] is 1.46 µM [rising, partial curve]. Consider `COc1cccc(-n2c(Cc3cc(=O)[nH]c(=O)[nH]3)nnc2SCC(=O)N2CCCC2)c1`, for which the cell number change is -41.2%. Further, under setting [1], the AC50 was 29.1 µM [falling, single point]. Consider `COc1ccc(-c2c(-c3ccccc3OC)oc3ccccc23)cn1`, for which the cell number change was -7.24%. Moreover, under setting [2], the AC50 is 16.4 µM [falling, single point]. Consider `O=C(/C=C/c1cccc(F)c1)OCC(=O)N1CCCc2ccccc21`, for which the AC50 under setting [2] was 3.26 µM [rising, partial curve]. Regarding `Cc1ccc(S(=O)(=O)N(CC(O)CN(C)C)c2ccccc2)cc1` (stereo not given), the cell number change was -33.1%. The AC50 under setting [1] is 0.0206 µM [falling, full curve, poor fit]. For the same compound, under setting [2], the AC50 is 14.6 µM [falling, partial curve, poor fit]. With `CN(Cc1ccco1)C(=O)CN1C(=O)NC(c2ccccc2)(c2ccccc2)C1=O`, the cell number change turned out to be 50%. Further, the AC50 under setting [1] is 0.517 µM [rising, full curve]. As to `CCc1noc(C)c1C(=O)Nc1ccc(S(=O)(=O)N2CCCCC2)cc1`, the cell number change stood at 15.1%. For the same compound, under setting [2], the AC50 is 14.6 µM [rising, partial curve]. Turning to `CCCC[C@H]1COCCS(=O)(=O)N1Cc1cccc(Cl)c1`, the cell number change was -14.9%. As to `O=C(N/N=C/c1cccc(OCc2ccccc2)c1)c1cccs1`, the cell number change is -8.49%. On to `CC(C)(C)NC(=O)c1ccccc1-c1nc2ccccc2s1`, for which the cell number change is -6.89%. Further, under setting [2], the AC50 was 0.184 µM [falling, full curve, poor fit]. Regarding `Cn1c(=O)c2c(nc(Br)n2CC(=O)c2cccs2)n(C)c1=O`, under setting [1], the AC50 is 0.146 µM [rising, full curve]. In the case of `CC(C)n1nc(C(=O)Nc2nnc(SCc3c(Cl)cccc3Cl)s2)c2ccccc2c1=O`, the cell number change came to 72.4%. Further, under setting [1], the AC50 is 5.17 µM [rising, partial curve].

Regarding `CCCCc1nc2ccccc2[nH]1`, under setting [2], the AC50 is 0.0058 µM [falling, full curve, poor fit]. Consider `CC(C)c1ccc(NC2CCCN(C(=O)c3ccncc3)C2)cc1` (stereo not given), for which the cell number change worked out at 141%. Moreover, the AC50 under setting [1] was 20.6 µM [rising, partial curve]. Turning to `COCCOC(=O)c1c(C)n(C)c2ccc(OC(=O)c3ccco3)cc12`, the AC50 by setting is: under setting [1], 2.91 µM [rising, single point]; under setting [2], 3.66 µM [rising, partial curve, poor fit]. On to `CCOC(=O)C1=C(C)N=C2c3ccccc3C(=O)C2C1c1ccccc1` (stereo not given), for which the cell number change came to 124%. Moreover, under setting [1], the AC50 is 0.651 µM [rising, single point]. The AC50 under setting [2] was 29.1 µM [rising, single point]. For `Cc1ccc(NC(=O)c2cccc(S(=O)(=O)N3CCN(c4ccc(F)cc4)CC3)c2)nc1`, under setting [2], the AC50 was 29.1 µM [falling, single point].

For the compound `COc1ccc(-c2nc3ccccc3c(=O)n2-c2c(C)n(C)n(-c3ccccc3)c2=O)cc1`, the cell number change is 6.47%. Further, under setting [1], the AC50 is 0.461 µM [rising, partial curve, poor fit]. For `CCc1ccc[n+](-c2[nH]c(=O)sc2/C=N/N=C(\N)[O-])c1`, the cell number change is -11.5%. Moreover, the AC50 under setting [1] is 0.82 µM [falling, full curve, poor fit]. In addition, the AC50 under setting [2] was 0.461 µM [falling, single point]. On to `Cc1ccc(S(=O)(=O)N2[C@@H](c3ccc(F)cc3)C(C(=O)O)=CC[C@H]2c2cccc(Cl)c2)cc1`, for which the cell number change is -1.86%. Further, the AC50 under setting [2] was 16.4 µM [rising, partial curve, poor fit]. For the compound `Cc1ccc(OCc2cc(C(=O)N3CCCC(O)C3)no2)cn1` (stereo not given), the cell number change was -9.91%. Moreover, under setting [2], the AC50 is 6.51 µM [rising, single point]. In the case of `S=C1NCN(CCc2ccccc2)CN1`, the cell number change was -27.2%. In addition, the AC50 under setting [1] is 4.11 µM [falling, full curve, poor fit]. Also, the AC50 under setting [2] was 16.4 µM [falling, single point]. As for `CC(=O)c1ccc(NC(=S)NCCCn2ccnc2)cc1`, the cell number change was 39.9%. Also, under setting [1], the AC50 is 0.517 µM [rising, partial curve, poor fit]. In addition, the AC50 under setting [2] was 1.84 µM [rising, full curve]. For the compound `CC(=O)NC(c1ccc(C)cc1)c1cc(Cl)c2cccnc2c1O` (stereo not given), the cell number change was -33%. Moreover, the AC50 under setting [1] is 23.1 µM [falling, single point]. Under setting [2], the AC50 was 29.1 µM [falling, single point].

In the case of `N#Cc1nc(-c2ccccc2)oc1NCCN1CCCCC1`, the cell number change turned out to be 24.1%.

As for `CC(OC(=O)Cc1c(F)cccc1Cl)C(=O)NC1CCCCC1C` (stereo not given), under setting [2], the AC50 was 29.1 µM [falling, single point]. `O=[N+]([O-])c1cc(S(=O)(=O)N2CCCC2)ccc1N/N=C/c1cccnc1`: the cell number change is 0.0569%. The AC50 under setting [1] is 6.51 µM [falling, single point]. Moreover, the AC50 under setting [2] was 1.16 µM [rising, single point].

As for `COc1cccc(CNC(=O)C2CCN(S(=O)(=O)c3cnc[nH]3)CC2)c1`, the cell number change was determined as 0.135%. In addition, the AC50 under setting [2] is 0.0517 µM [falling, full curve, poor fit]. For the compound `CC(=O)C[C@H](O)CC(=O)[C@@H]1OC(=O)CCCCCCc2ccccc21`, the cell number change is -12.2%. Moreover, the AC50 under setting [2] was 0.82 µM [rising, full curve]. As for `Cc1nc2cc3nc(C)sc3cc2s1`, the cell number change is -0.154%. Further, the AC50 under setting [2] was 0.082 µM [rising, partial curve, poor fit].

Turning to `O=C1CCCN1C(=O)COc1ccccc1[N+](=O)[O-]`, the cell number change is -6.5%.

Values taken from PubChem BioAssay AID2685 (National Center for Advancing Translational Sciences (NCATS), 2010).
